Our source for the binding values is article PMC4538849.

Sequences of proteins named here, by UniProt entry; tags and fusion partners are left off. Residues count along the entry.
UniProt Q8IXI1, residues 1-592: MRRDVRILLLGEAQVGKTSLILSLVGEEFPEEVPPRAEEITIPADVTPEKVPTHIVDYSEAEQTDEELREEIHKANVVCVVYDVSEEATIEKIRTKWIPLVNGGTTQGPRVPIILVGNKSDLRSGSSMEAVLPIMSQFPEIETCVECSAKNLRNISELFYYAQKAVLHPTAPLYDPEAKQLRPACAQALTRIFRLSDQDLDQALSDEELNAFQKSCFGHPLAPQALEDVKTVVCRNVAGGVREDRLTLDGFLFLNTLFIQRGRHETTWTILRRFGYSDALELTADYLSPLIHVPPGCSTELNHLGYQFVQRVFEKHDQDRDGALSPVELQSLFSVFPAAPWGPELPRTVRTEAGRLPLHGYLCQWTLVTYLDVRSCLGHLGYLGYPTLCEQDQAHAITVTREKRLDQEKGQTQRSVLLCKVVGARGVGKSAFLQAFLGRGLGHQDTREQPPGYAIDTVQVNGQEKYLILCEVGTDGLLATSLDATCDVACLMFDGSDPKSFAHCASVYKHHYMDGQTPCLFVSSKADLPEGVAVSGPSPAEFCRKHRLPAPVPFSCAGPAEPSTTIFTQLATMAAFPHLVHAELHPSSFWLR

This test concerns the target T1, LexA-fused C-terminal fragment of Cenp-F (amino acids 2977–3020) (UniProt P49454).
T1 sequence: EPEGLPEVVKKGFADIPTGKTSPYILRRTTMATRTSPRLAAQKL
The test can be described thus: two-hybrid; LexA-Cenp-F bait (pEG202), Miro prey (pJG4-5), yeast EGY48 with lacZ reporter pSH18-34, galactose medium, X-gal overlay.

These are yes or no findings as the source states them, for the method shown. Some binding calls cover weakened binding; strength is not graded here. Sequences can lack the tags named with a protein.

For the substance “Miro2 (amino acids 1–592) (from UniProt Q8IXI1 1-592) (domain or fragment)”, the binding entry was “binds”.
